Patent publication US20250009808A1
These are yes or no findings as the source states them, for the method shown. Some results given as binding are weak or reduced against the parent protein; the word gives no strength. Tags and fused reporters may be left off the sequences shown. Each block holds one binder with its values, some of them ahead of it.

Columns and labels:
[1] = biological target: T1, rat RT1A class I histocompatibility antigen (rat (Rattus norvegicus)) (UniProt P16391); experiment: magnetic negative selection of rat cells from a xenomixture, with a magnetic bead conjugated secondary antibody
T1 sequence (MHC heavy): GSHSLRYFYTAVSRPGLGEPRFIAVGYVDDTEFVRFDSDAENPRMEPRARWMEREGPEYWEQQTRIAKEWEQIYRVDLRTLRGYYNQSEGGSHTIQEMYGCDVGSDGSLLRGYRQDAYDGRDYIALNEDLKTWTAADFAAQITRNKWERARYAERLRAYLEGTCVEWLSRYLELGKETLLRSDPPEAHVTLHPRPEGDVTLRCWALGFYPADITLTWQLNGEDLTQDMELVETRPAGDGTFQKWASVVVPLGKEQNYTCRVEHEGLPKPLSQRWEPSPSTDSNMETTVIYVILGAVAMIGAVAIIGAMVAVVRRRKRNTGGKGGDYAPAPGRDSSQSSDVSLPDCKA

[2] = biological target: T1, rat RT1A class I histocompatibility antigen (rat (Rattus norvegicus)); experiment: rat cells with unconjugated primary and magnetic secondary antibody; percent of cells retained on magnetic column (positive control)
[3] = biological target: T1, rat RT1A class I histocompatibility antigen (rat (Rattus norvegicus)); experiment: rat cells with bead-conjugated antibody; retention on magnetic column

binding [1]: binds
binding [2]: binds
B1: anti-RT1A antibody (aRT1), mouse IgG1 / mouse kappa, encoded by SEQ ID NO:14 and SEQ ID NO:17 (antibody, V domains shown)
VH: EVQLQESGPSLVKPSQTLSLTCSVTGDSITSGYWNWIRKFPGNKLEYMGYISYSGSTYYNPSLKSRISITRDTSKNQYYLQLNSVTTEDTATYYCASHSHWYFDVWGAGTTVTVSS
VL: DIQMTQTTSSLSASLGDRVTISCRASQDISNYLNWYQQKPDGTVKLLIYYTSRLHSGVPSRFSGSGSGTDYSLTISNLEQEDIATYFCQQGNTLPWTFGGGTKLEIKR

binding [3]: binds
B2: direct-magnetic-bead conjugated anti-RT1A antibody (antibody, V domains shown)
VH: B1 VH
VL: B1 VL
